Reference: the supplement of paper PMC10849652
Some of the results follow.

Amino acid sequences for entries named in this document (tags omitted). A change or cut given only in a name is not applied to a line headed by its entry.
UniProt Q6UW63: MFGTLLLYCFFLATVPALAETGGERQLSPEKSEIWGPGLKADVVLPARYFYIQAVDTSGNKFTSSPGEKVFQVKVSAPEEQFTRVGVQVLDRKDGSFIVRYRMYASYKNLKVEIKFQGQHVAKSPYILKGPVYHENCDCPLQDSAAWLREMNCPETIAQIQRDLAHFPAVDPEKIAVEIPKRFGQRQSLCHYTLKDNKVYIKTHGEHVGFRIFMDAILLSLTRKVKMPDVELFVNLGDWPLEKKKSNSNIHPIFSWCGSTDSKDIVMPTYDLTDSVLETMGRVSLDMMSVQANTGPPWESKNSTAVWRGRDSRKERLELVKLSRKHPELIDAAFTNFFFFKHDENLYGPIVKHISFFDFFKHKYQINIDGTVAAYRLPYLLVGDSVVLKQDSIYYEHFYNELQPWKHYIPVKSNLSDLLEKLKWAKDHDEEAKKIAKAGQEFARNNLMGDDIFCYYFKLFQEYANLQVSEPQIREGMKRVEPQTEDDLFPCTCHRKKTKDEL
UniProt Q8TF01: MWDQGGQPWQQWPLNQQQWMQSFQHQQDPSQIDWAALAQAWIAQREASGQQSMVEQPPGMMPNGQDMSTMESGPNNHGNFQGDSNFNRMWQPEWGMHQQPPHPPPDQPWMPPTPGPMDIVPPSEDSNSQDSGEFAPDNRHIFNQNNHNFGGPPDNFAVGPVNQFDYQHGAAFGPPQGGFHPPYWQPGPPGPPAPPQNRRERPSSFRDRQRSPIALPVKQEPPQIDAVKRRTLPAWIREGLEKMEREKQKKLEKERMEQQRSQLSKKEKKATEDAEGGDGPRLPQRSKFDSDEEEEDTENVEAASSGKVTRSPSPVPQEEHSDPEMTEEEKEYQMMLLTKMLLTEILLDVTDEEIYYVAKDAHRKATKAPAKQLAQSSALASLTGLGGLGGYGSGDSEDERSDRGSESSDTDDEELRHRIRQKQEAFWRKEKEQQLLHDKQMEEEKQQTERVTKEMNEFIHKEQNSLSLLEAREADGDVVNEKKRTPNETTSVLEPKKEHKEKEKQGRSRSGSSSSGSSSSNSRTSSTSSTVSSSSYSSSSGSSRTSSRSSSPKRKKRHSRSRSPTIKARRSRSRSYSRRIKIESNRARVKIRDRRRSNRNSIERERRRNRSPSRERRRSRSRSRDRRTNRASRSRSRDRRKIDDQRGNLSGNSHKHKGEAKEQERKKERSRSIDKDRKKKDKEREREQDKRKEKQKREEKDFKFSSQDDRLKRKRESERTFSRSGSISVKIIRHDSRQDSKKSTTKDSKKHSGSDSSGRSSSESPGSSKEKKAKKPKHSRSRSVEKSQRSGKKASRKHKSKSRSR
UniProt Q8TCS8: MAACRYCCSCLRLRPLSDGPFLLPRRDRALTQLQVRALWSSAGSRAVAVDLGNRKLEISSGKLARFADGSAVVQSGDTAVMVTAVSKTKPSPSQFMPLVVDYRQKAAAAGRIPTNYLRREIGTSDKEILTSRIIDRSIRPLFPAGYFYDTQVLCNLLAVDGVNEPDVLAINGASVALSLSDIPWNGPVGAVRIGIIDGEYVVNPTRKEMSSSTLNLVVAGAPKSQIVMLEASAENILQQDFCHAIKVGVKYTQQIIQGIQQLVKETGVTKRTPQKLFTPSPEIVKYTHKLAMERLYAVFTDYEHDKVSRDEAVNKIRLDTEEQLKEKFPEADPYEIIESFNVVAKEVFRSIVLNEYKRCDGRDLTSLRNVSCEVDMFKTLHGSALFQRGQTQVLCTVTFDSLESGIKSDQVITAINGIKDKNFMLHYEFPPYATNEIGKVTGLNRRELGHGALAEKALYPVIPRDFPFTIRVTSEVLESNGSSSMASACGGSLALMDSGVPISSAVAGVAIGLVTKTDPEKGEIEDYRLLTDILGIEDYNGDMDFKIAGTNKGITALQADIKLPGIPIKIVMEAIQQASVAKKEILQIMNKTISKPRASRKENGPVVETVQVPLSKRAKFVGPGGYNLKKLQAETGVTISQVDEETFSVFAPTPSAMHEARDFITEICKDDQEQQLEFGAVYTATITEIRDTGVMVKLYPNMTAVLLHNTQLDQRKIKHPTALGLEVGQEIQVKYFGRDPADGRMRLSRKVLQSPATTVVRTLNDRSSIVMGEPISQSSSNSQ
UniProt P13797: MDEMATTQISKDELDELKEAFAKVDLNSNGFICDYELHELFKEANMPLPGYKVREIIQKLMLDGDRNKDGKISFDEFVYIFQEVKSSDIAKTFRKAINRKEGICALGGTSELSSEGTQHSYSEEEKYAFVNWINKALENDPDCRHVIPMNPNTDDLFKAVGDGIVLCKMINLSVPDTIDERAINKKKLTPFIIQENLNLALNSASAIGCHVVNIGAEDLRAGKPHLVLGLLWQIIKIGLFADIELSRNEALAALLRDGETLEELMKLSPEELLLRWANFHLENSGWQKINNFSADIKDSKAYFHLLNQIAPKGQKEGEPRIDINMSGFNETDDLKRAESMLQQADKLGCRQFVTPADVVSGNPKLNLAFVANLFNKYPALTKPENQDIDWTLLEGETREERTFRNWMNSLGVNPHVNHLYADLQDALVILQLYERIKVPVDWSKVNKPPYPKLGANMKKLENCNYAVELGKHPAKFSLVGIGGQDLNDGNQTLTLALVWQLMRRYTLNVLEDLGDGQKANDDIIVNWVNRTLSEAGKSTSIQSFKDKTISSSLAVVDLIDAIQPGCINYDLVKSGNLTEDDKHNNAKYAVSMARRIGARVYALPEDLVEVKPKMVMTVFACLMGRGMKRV
UniProt Q8N490: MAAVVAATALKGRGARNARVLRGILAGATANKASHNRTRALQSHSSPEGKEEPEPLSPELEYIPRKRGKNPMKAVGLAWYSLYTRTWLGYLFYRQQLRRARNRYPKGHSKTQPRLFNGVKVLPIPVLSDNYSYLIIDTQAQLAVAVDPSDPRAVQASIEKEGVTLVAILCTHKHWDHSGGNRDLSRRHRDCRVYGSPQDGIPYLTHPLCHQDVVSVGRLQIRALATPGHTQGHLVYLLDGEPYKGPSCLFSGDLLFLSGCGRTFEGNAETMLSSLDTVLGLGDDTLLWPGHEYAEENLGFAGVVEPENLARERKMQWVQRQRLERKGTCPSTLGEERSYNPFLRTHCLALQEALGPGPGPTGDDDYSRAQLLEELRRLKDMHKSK
UniProt O15031: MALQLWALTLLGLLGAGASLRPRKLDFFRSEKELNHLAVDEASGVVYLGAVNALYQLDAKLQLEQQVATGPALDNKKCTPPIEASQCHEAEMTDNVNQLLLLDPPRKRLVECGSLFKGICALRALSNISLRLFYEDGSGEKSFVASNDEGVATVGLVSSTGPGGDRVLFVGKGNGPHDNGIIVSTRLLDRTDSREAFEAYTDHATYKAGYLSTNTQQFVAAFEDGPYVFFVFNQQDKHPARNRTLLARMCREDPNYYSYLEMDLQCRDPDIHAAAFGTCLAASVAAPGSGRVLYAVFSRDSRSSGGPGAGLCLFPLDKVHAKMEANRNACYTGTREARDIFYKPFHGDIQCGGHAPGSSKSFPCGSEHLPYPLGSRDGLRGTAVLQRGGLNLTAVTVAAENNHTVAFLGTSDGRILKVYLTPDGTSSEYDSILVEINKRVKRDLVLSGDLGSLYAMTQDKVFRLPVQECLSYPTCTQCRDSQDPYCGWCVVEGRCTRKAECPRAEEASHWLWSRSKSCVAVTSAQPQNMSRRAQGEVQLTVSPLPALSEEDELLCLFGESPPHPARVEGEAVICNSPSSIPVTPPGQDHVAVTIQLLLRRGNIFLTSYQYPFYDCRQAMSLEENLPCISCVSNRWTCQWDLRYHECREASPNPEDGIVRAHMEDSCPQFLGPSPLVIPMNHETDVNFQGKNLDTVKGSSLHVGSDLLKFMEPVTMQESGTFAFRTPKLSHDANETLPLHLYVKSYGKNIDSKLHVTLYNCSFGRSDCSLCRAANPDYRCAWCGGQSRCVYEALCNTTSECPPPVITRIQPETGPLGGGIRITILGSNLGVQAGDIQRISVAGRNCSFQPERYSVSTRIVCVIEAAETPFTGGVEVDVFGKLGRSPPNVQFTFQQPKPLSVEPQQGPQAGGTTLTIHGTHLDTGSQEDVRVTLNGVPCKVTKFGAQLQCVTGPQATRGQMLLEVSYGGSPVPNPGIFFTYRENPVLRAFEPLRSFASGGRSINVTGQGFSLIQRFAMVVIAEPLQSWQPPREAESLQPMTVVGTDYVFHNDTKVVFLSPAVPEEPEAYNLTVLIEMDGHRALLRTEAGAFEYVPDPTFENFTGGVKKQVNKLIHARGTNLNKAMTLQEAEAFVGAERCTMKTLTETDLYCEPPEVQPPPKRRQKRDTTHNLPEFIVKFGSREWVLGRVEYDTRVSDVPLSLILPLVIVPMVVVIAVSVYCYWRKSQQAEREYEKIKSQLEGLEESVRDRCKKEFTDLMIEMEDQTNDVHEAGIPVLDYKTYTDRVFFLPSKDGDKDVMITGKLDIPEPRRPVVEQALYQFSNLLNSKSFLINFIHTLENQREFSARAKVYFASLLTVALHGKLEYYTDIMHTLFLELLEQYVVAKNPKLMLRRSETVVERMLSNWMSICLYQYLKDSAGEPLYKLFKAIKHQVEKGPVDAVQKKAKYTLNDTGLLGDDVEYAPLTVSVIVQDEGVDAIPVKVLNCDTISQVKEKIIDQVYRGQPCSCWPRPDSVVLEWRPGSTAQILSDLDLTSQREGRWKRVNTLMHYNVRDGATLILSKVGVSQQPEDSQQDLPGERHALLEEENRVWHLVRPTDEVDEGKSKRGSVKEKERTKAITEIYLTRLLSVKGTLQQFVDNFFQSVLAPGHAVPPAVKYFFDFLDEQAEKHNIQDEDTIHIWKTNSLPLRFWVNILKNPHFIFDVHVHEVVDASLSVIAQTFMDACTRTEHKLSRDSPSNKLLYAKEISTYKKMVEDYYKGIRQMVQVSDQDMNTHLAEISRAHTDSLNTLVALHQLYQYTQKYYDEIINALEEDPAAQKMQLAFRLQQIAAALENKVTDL
UniProt Q9NVS9: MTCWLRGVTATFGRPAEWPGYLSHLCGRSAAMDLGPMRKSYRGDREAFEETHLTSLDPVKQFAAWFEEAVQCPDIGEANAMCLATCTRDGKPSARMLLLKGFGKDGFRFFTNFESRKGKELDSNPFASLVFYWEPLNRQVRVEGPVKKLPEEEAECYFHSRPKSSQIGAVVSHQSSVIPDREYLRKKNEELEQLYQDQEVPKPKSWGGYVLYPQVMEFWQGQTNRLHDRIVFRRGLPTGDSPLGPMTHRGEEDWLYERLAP
UniProt Q9HCU8: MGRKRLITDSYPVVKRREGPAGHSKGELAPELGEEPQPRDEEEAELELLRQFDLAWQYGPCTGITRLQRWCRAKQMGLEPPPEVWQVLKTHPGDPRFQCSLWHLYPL
UniProt Q13136: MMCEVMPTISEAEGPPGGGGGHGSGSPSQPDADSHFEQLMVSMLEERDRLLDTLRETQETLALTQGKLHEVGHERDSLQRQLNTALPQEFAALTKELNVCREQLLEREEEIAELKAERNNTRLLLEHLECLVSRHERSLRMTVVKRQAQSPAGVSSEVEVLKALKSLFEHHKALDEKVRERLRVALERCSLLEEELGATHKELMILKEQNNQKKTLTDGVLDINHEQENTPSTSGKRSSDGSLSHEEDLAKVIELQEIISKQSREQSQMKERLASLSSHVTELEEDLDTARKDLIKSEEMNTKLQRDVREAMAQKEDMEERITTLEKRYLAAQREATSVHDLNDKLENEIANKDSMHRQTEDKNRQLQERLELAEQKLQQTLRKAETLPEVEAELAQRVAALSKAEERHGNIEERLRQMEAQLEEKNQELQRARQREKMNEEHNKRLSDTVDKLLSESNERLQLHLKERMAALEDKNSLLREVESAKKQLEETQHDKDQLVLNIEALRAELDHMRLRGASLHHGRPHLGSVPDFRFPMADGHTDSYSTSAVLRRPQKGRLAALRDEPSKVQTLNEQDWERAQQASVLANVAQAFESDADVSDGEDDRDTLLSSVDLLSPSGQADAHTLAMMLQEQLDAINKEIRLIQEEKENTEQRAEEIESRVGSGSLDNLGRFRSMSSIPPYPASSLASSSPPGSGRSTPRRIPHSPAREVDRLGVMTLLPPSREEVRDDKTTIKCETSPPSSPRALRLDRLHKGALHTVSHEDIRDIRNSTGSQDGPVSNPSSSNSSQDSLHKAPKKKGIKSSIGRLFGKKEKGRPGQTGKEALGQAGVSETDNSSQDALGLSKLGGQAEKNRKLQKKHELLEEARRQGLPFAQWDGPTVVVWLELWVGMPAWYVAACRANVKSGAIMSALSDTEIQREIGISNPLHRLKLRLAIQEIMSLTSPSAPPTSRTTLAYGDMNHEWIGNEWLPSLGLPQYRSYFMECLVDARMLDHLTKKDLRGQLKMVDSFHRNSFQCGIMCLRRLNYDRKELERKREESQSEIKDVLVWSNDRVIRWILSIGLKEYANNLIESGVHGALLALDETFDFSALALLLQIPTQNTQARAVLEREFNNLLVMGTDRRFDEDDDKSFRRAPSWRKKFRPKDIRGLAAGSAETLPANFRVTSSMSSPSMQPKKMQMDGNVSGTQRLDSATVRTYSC

Compound: c1cn2cc(-c3ccc4cn[nH]c4c3)nc(Nc3ccc(N4CCOCC4)cc3)c2n1 [entospletinib]
Assay: log2 fold change, soluble protein after heating vs DMSO (PISA); higher = thermal stabilisation; K562 cells, 10 uM, 30 min; active = over 0.2 and 3.5 SD of the protein, either way, in both replicates (recomputed)
Procedure, shortened: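 K562 cells at 2×10^6 cells/mL were exposed to 10 μM compound for 30 min, then aliquots were heated for 3 min across 48°C-58°C, pooled, and extracted in PBS containing 0.5% NP-40 at 4°C. The supernatant after 21,000xg for 90 min was taken as soluble protein and measured by TMTpro 16plex LC-MS/MS with channel sums equalised. Thermal stability is reported relative to control samples, with values from duplicates. Fold changes are given on a log2 scale.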

log2 fold change, inactive:
POMT2 (UniProt Q9UKY4) 0.014, PON2 (UniProt Q15165) 0.027, PPIP5K1 (UniProt Q6PFW1) 0.015, POGLUT2 (UniProt Q6UW63) -0.015, PNISR (UniProt Q8TF01) 0.006, POLDIP3 (UniProt Q9BY77) -0.061, POLE3 (UniProt Q9NRF9) -0.078, PLOD3 (UniProt O60568) -0.013, PNPT1 (UniProt Q8TCS8) -0.041, PLS3 (UniProt P13797) -0.045, POLG2 (UniProt Q9UHN1) 0, PPM1B (UniProt O75688) 0.025, PLIN3 (UniProt O60664) -0.011, POP5 (UniProt Q969H6) 0.048, PNKD isoform 2 (UniProt Q8N490) -0.01, POLR2J (UniProt P52435) 0.074, POFUT1 (UniProt Q9H488) 0.008, PLXNB2 (UniProt O15031) -0.048, POLD2 (UniProt P49005) -0.01, PPIP5K2 (UniProt O43314) 0.044, PNPO (UniProt Q9NVS9) -0.016, POGLUT3 (UniProt Q7Z4H8) -0.043, POLR2H (UniProt P52434) 0.053, PLOD1 isoform 2 (UniProt Q02809) 0.041, POP4 (UniProt O95707) -0.018, PPAT (UniProt Q06203) -0.021, POTEF (UniProt A5A3E0) -0.018, POLD4 (UniProt Q9HCU8) -0.003, PPFIA1 (UniProt Q13136) -0.121
